According to patent publication US20190060239A1, “Technology for the Preparation of Microparticles” (Ansun Biopharma, Inc., priority 2007, published 2019):

Test: Microsphere formation, size and appearance by light microscopy
Type: physicochemical
Settings: 2 mg/ml paclitaxel
Procedure: 4) DAS181+5 mM sodium citrate, pH 5.0+10% isopropanol; • Plastic microcentrifuge tubes containing the cocktails with ingredients as described in 1)-4) above were gradually cooled from: • (a) ambient temperature (about 25° C.) to 4° C. by placing the cocktails in a refrigerator, followed by: • (b) cooling to −20° C. by placing the resulting cocktail from (a) in a freezer, followed by: • (c) freezing to −80° C. by placing the resulting cocktail from b) in a freezer.
Freezing to −80° C. is carried out to remove ingredients from the cocktail other than the microspheres (e.g., solvent, etc.) by freeze-drying. Cocktail 4) was prepared in triplicate, two aliquots in plastic tubes and one in a glass tube. One aliquot (in a plastic tube) was cooled as described above, while the two other aliquots (one in a plastic tube and one in a glass tube) were subjected to snap cooling/freezing by dipping the tubes into liquid nitrogen.
Upon freezing, all tubes were placed into the lyophilizer and the volatiles (water and isopropanol) were removed by sublimation, leaving the dry pellets.
The dry pellets recovered from the cocktails treated as described above, were tested for the presence of microspheres.
DAS181 was purified and used to prepare microspheres as described above in Example 1 (see cocktail 4)), using a combination of DAS181 protein (10 mg/ml), citrate counterion (sodium citrate, 5 mM) and isopropanol organic solvent (10%, 20% or 30%). The resulting cocktail solutions were cooled from ambient temperature (about 25° C.) to 4° C., followed by cooling to −20° C., followed by freezing to −80° C., as described in Example 1. Upon freezing to −80° C., the tubes are placed in a lyophilizer and the volatiles (water and isopropanol) were removed by sublimation, leaving the dry powder containing microspheres.
DAS181 was purified and used to prepare microspheres as described above in Example 1 (see cocktail 4)), using a combination of DAS181 protein (5 mg/ml or 10 mg/ml), citrate counterion (sodium citrate, 5 mM) and isopropanol (5% or 20%). […]

CC(=O)O[C@H]1C(=O)[C@@]2(C)[C@H]([C@H](OC(=O)c3ccccc3)[C@]3(O)C[C@H](OC(=O)[C@H](O)[C@@H](NC(=O)c4ccccc4)c4ccccc4)C(C)=C1C3(C)C)[C@]1(OC(C)=O)CO[C@@H]1C[C@@H]2O [Paclitaxel]
solvent concentration forming the best microspheres (solvent DMSO, 2 mM Na-citrate buffer pH 5.0): 50% | solvent concentration forming the best microspheres (solvent isopropanol, 2 mM Na-citrate buffer pH 5.0 as antisolvent/counterion): 50% | solvent concentration forming the best microspheres (solvent t-butanol, 2 mM Na-citrate buffer pH 5.0): 90%
